This is an account of results in patent US20050130197A1 (priority 2003, published 2005).

This data set is described as follows: peptide made by a vendor. Particulars: 545 um (so in the source).

Consider TAMRA-labeled NPFF, for which the “purity (crude or final not stated)” value is on record as 96% pure.
